Measured values reported in article PMC6829904.
These are yes or no findings as the source states them, for the method shown. A result given as binding can be weak or reduced; the word gives no strength. For some of these results: Tags and fused reporters may be left off the sequences shown.

Columns and labels:
Experiment in all cases: two-hybrid; Matchmaker GAL4-based two-hybrid system 3, pGBKT7 and pGADT7 constructs cotransformed into yeast AH109; selection on SD/-Leu/-Trp/-His/-Ade (QDO) and QDO with X-a-gal
[1] = molecular target: T1, Arabidopsis SWI3A (yeast two-hybrid fusion) (Arabidopsis) (UniProt Q8W475)
T1 sequence: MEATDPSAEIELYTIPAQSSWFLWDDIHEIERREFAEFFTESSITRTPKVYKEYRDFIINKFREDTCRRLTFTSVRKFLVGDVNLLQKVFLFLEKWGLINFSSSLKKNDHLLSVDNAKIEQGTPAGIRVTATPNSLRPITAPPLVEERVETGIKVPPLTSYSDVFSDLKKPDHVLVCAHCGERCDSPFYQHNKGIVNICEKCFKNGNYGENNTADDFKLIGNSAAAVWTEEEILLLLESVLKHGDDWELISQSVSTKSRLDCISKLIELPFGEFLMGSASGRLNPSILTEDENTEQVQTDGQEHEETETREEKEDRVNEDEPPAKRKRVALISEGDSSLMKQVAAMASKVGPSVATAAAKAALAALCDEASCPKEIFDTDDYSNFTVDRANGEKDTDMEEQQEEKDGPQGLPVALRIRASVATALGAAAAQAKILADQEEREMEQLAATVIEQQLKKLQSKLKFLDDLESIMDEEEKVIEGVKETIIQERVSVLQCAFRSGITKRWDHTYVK

[2] = molecular target: T2, Arabidopsis SWI3D (yeast two-hybrid fusion) (Arabidopsis) (UniProt Q8VY05)
T2 sequence: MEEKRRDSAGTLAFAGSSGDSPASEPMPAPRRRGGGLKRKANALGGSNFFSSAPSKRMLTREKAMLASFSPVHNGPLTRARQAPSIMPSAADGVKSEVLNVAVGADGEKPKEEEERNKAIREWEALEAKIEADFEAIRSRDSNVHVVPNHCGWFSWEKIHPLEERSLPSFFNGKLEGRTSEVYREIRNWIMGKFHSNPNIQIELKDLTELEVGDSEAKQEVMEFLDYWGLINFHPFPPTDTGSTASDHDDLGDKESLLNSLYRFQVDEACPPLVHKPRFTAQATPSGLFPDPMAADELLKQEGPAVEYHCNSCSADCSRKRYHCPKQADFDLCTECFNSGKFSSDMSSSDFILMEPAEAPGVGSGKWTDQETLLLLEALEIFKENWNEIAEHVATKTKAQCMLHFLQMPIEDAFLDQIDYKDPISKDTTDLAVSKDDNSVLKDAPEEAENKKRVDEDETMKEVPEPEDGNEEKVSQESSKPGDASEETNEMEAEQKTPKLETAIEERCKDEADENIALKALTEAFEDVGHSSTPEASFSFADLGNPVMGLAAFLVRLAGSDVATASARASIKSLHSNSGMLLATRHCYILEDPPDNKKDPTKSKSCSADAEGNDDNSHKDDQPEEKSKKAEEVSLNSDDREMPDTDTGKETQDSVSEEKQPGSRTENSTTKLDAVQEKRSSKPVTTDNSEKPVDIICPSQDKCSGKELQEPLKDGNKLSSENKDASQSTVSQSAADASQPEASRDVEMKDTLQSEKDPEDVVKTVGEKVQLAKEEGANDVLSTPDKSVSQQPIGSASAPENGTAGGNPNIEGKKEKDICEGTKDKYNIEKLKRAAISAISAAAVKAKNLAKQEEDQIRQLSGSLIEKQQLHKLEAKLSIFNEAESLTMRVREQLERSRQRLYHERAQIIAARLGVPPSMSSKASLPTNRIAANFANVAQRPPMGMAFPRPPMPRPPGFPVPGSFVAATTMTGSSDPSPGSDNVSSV

[3] = molecular target: T3, Arabidopsis SWI3B (yeast two-hybrid fusion) (Arabidopsis) (UniProt Q84JG2)
T3 sequence: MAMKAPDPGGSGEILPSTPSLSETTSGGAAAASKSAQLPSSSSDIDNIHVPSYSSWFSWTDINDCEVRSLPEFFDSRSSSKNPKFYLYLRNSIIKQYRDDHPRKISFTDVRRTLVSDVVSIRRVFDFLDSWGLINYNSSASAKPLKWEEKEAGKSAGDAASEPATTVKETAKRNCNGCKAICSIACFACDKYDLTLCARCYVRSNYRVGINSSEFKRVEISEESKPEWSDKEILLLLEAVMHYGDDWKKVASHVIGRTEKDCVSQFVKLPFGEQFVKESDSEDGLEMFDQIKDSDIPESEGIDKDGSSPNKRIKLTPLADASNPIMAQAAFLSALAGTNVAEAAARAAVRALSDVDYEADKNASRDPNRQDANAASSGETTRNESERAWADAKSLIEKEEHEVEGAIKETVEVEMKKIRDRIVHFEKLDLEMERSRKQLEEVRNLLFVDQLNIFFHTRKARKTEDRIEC

[4] = molecular target: SlSWI3C (yeast two-hybrid fusion) (tomato (Solanum lycopersicum))

Substance | binding [1] | binding [2] | binding [3] | binding [4]
SlSWI3C (yeast two-hybrid fusion) (from UniProt A0A3Q7GUL8) | binds | binds | binds | –
SlSWI3B (yeast two-hybrid fusion) (from UniProt A0A3Q7G8R8) | – | – | – | binds
